# ± gives the standard deviation. This is a selection; strong and weak results do not stand in their true shares. Many entries were measured with a wide error.
# Test system: MILI (PIWIL2) piRISC loaded with piRNA #1 (26 nt)
# Test: pre-steady-state target cleavage rate (min^-1); MIWI and MILI are mouse PIWI proteins and EfPiwi is from a freshwater sponge; tags in brackets are library labels; higher = faster piRNA-guided slicing of the target
# Conditions: guide: piRNA #1 5'p-UGAGGUAGUAGGUUGUAUAGUAUCCA; auxiliary factor: 500 nM mouse GTSF1
# Method in brief: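 With or without 500 nM GTSF1 partner protein, 1 nM active affinity-purified piRISC carrying one synthetic guide was mixed with 0.1 nM transcribed, DNA-blocked target RNA library in HEPES–potassium acetate buffer at 33 °C for 0–8 or 0–960 min. Uncleaved targets were sequenced and normalised to depth and to weakly complementary targets, three trials were pooled, and k3 was capped at 0.0001 min^-1. The pre-steady-state cleavage rate came from a burst-and-steady-state fit.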
row,Sequence,pre-steady-state target cleavage rate
1,GGAGUGGAUACUAAACAUCCUACUACCUCA,0.242 ± 0.013
2,GGAGACCUAUGAUAUGAACCUACUACCUCG [g2:g14:cont:t1G],0.000396 ± 0.0064
3,GGAGACCUAUGAUAUGAUCCAACUACCUCA,0.000235 ± 0.012
4,GGAGUGGAUAGUAUACAACCUACUACCUGA,0.0603 ± 0.014
5,GGAGUGGAUACUAUACAACCUGACUACCUCA,0.00175 ± 0.0037
6,GGAGACCUAUGAUAUGUACCUACUGCCUCA,0.000148 ± 0.02
7,GGAGACCUAUCUAUACAACGAUGAUGGAGA [g12:g20:cont:t1A],0.000283 ± 0.02
8,GGAGACGAUACUAUACAAGCUUCUACCUCA,0.0442 ± 0.0052
9,GGAGACCUAUGAUUACUAACCUACUACCUCA,0.000392 ± 0.0091
10,GGAGACCUAUGAUAUGUUGCUUGAACCUCA,< 0.0001
11,GGAGACCUAUGAAUAGAACCAACUACCUCA,0.000386 ± 0.01
12,GGAGUGGUUACUAUACAACCUACUUCCUCA,0.0036 ± 0.002
13,GGAGACCUAUGAUAUGUUCCUACCUACCUCA,0.000117 ± 0.024
14,GGAGUGGAUACUAUACAAGCUACUACGUCA,0.0651 ± 0.013
15,GGAGACCAUACAUUACAACCUACUACCUCA,0.0869 ± 0.014
16,GGAGUGGAUACUAUACAAGCUACUUCCUCA,0.0765 ± 0.0095

# Part of the list above, reformatted:
row	Sequence	pre-steady-state target cleavage rate
7	GGAGACCUAUCUAUACAACGAUGAUGGAGA [g12:g20:cont:t1A]	0.000283 ± 0.02
8	GGAGACGAUACUAUACAAGCUUCUACCUCA	0.0442 ± 0.0052

# Reference: the supplement of paper PMC10338343
